Test results reported in patent US20160159816A1, “SUBSTITUTED THIENOPYRIMIDINES AND PHARMACEUTICAL USE THEREOF” (BAYER PHARMA AKTIENGESELLSCHAFT, priority 2013, published 2016).
pIC50: −log10 of the molar value. Structures were worked out from names or drawings and are uncertain.

The chains behind the UniProt entries cited, without tags or fusion partners. Residues count along the entry.
UniProt Q9BUB5, 1-424 isoform 2 T344D: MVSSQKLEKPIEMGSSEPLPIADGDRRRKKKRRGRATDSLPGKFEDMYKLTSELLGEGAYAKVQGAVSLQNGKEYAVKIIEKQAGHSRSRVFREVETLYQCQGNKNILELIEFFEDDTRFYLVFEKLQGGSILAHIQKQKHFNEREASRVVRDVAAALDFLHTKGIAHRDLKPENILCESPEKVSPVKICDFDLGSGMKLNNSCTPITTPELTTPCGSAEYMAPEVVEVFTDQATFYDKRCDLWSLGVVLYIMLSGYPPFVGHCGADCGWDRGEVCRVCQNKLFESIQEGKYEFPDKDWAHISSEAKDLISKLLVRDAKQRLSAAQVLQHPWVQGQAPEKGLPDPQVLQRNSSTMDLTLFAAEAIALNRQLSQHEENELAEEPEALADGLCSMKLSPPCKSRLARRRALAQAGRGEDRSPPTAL

Molecular target: human full-length MKNK1 (Homo sapiens, UniProt Q9BUB5, T385D)
Assay: MKNK1 kinase high ATP assay (TR-FRET)
Conditions: read-out: MKNK1 IC50; high ATP (2 mM), after preincubation with MKNK1; compounds of the present invention (Table 1a)
Procedure: MKNK1-inhibitory activity at high ATP of compounds of the present invention after their preincubation with MKNK1 was quantified employing the TR-FRET-based MKNK1 high ATP assay as described in the following paragraphs.
A recombinant fusion protein of Glutathione-S-Transferase (GST, N-terminally) and human full-length MKNK1 (amino acids 1-424 and T344D of accession number BAA 19885.1), expressed in insect cells using baculovirus expression system and purified via glutathione sepharose affinity chromatography, was purchased from Carna Biosciences (product no 02-145) and used as enzyme. As substrate for the kinase reaction the biotinylated peptide biotin-Ahx-IKKRKLTRRKSLKG (C-terminus in amide form) was used, which can be purchased e.g. from the company Biosyntan (Berlin-Buch, Germany). […]
The resulting mixture was incubated for 1 h at 22° C. to allow the formation of complex between the phosphorylated biotinylated peptide and the detection reagents. Subsequently the amount of phosphorylated substrate was evaluated by measurement of the resonance energy transfer from the Eu-chelate to the streptavidine-XL. Therefore, the fluorescence emissions at 620 nm and 665 nm after excitation at 350 nm were measured in a TR-FRET reader, e.g. a Rubystar (BMG Labtechnologies, Offenburg, Germany) or a Viewlux (Perkin-Elmer). […]

pIC50: 7.63
SMILES: CC(C)(C)OC(=O)N[C@@H](CCO)C(=O)NCC1CCc2c(sc3ncnc(Nc4ccc5[nH]ncc5c4)c23)C1 (stereo partly shown)
